Activity change, negative = inhibition data for 1 compound are collected here from PubChem BioAssay AID504834 (National Center for Advancing Translational Sciences (NCATS), 2011).

This list holds what a sample rich in hits left over. Records with an inconclusive call do not appear. Calls of active or inactive are those of the source. Calls come from the whole dose curve; as a rule, active = well fitted inhibition curve with a large enough effect; inconclusive = small, poorly fitted or top-dose-only effect, or another doubt; inactive = no such curve, though single readings can be large or run the other way.
% is set by controls: 0 for no effect and ±100 for the full control effect.

A short description of this experiment: Primary qHTS for delayed death inhibitors of the malarial parasite plastid, 96 hour incubation. The note with it: P. falciparum luciferase reporter growth; at 28.7 µM (top of the series). An excerpt: The goal of this screen is to discover new antimalarial compounds that act by inhibiting the development of the apicoplast in the malarial parasite Plasmodium falciparum. The biochemical processes that make this organelle essential for erythrocytic stage parasites are not well understood. However, antibiotics such as azithromycin and tetracycline, which target the apicoplast translational machinery, have a potent antimalarial effect.
We have developed a cell-based assay that measures parasite growth based on the expression of an integrated copy of a firefly luciferase reporter. To detect small molecules that cause this "delayed death" phenotype, erythrocytes infected with the luciferase-expressing parasites were incubated with compounds for either one or two generations, corresponding to 48 and 96 hours, respectively. Compounds that inhibit parasite growth in the second generation, but not the first, should be enriched in antimalarials that target the apicoplast. Growth inhibition is detected by a decrease in luciferase activity. […]
Four microliters of infected erythrocytes (2% hematocrit, 0.05% parasitemia final concentration) in culture medium were dispensed and the plates incubated for 96 hours at 37 C in 5% CO2. Two microliters of luciferase detection reagent was added and luminescence was detected by a ViewLux (PerkinElmer) reader.
On the technique in general: qHTS replaces the single test concentration by a dilution series.
In the case of `Cc1cc(=O)oc2cc(OCc3ccccc3)ccc12`, the activity change, negative = inhibition is inactive: 0%.
